Results as given in the supplement of paper PMC10849652.
Some of the results follow.

Amino acid sequences for entries named in this document (tags omitted). A change or cut given only in a name is not applied to a line headed by its entry.
UniProt O75534: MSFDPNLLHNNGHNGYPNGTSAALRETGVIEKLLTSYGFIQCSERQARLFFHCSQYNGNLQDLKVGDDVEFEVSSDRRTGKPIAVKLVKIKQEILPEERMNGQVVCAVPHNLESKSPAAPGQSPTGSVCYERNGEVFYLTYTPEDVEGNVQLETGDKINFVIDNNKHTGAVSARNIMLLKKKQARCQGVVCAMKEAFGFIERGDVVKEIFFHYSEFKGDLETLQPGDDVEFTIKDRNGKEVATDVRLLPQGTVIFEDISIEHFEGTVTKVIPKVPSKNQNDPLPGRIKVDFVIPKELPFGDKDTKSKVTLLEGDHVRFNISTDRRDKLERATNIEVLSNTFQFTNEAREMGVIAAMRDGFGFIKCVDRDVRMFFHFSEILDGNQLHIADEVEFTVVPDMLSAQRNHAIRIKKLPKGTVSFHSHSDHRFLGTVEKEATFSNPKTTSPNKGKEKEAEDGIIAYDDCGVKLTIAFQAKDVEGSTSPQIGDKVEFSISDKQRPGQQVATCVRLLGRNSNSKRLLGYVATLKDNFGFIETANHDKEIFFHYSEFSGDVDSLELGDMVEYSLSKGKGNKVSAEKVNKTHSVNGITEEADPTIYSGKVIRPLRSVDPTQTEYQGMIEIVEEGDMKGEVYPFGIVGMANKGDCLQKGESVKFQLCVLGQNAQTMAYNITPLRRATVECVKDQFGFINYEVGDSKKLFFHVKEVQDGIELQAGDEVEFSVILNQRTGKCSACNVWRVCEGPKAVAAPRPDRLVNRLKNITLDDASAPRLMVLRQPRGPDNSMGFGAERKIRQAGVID
UniProt Q16526: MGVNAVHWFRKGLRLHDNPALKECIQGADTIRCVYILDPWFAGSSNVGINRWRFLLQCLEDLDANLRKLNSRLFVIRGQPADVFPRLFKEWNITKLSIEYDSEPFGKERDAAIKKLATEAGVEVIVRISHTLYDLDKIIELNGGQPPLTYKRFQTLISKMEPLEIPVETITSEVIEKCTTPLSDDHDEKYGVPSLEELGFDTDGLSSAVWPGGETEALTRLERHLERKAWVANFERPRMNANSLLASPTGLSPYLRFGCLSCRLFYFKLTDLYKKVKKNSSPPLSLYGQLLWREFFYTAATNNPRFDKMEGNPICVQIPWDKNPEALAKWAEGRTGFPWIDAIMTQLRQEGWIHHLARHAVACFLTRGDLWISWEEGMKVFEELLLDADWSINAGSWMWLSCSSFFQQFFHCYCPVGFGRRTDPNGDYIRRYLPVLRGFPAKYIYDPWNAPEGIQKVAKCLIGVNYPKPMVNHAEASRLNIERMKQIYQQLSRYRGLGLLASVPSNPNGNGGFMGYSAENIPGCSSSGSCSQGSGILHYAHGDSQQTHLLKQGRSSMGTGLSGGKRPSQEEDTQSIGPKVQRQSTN
UniProt Q8NBI2: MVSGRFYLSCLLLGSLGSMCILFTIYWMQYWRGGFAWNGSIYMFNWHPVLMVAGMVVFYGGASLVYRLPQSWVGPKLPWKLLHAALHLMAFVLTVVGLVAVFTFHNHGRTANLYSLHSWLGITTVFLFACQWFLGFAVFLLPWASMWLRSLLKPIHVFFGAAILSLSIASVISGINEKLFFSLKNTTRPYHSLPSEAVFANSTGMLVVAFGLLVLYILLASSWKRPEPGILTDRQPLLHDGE
UniProt Q2NKJ3: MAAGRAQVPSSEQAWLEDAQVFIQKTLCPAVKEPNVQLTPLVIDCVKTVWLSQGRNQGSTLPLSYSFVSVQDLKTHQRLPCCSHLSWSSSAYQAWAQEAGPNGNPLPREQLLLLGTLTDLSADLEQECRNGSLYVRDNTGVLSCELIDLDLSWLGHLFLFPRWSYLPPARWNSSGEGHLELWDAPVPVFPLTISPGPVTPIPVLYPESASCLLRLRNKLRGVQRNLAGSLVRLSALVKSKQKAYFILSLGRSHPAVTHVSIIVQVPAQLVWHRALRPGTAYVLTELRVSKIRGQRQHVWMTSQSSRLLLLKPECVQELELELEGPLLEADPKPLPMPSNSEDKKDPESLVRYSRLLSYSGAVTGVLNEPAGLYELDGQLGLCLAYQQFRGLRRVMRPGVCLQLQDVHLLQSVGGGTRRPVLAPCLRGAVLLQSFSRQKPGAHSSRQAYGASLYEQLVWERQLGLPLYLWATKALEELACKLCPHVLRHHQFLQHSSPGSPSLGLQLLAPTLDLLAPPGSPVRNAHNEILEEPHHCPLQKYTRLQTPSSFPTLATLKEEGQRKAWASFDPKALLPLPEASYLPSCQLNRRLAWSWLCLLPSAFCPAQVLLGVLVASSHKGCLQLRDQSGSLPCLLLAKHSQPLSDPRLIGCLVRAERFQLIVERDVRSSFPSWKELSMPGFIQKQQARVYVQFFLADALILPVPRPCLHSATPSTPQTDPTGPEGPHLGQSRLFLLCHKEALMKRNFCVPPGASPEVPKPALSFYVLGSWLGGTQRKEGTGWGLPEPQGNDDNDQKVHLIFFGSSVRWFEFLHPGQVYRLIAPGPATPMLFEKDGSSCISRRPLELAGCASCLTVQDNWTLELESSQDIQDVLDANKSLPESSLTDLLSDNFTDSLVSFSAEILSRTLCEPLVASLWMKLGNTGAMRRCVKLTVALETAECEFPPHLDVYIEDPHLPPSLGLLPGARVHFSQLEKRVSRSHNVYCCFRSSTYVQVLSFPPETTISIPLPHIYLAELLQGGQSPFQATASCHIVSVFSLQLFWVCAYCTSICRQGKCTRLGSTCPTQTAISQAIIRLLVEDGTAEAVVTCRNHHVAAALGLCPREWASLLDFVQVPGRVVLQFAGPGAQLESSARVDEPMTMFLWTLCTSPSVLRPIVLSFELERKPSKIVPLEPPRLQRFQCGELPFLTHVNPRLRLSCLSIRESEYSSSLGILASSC
UniProt P00167, whole entry, looked up: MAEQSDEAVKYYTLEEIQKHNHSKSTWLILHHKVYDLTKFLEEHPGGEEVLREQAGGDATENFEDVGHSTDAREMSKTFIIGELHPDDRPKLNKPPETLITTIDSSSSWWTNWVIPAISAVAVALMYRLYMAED
UniProt Q9BQA9: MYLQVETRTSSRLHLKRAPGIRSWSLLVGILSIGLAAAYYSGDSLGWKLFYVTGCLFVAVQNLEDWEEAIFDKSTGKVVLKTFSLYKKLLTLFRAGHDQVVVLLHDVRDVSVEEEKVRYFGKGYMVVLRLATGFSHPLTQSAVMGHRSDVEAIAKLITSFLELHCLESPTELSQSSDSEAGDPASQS
UniProt P01037: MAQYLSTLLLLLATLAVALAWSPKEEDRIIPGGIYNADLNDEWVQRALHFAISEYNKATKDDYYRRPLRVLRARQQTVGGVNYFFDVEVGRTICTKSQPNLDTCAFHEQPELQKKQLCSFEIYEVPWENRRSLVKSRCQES
UniProt Q9UJA2: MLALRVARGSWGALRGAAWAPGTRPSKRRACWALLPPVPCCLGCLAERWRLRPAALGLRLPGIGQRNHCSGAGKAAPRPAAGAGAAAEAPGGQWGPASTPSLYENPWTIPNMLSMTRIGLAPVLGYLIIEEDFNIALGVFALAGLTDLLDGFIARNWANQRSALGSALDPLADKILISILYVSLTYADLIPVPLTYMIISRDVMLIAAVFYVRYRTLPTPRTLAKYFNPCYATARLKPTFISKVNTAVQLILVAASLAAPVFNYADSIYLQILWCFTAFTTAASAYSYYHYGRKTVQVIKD
UniProt P68400, whole entry, looked up: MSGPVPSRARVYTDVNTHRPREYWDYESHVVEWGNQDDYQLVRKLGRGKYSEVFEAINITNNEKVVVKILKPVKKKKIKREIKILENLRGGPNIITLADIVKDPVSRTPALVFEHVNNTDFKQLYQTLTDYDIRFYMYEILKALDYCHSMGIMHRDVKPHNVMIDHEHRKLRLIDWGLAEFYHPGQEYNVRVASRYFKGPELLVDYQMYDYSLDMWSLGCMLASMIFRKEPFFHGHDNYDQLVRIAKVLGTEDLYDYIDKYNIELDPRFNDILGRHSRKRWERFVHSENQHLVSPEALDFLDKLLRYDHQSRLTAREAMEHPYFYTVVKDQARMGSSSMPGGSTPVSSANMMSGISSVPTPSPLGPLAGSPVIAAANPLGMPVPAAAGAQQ
UniProt O95196: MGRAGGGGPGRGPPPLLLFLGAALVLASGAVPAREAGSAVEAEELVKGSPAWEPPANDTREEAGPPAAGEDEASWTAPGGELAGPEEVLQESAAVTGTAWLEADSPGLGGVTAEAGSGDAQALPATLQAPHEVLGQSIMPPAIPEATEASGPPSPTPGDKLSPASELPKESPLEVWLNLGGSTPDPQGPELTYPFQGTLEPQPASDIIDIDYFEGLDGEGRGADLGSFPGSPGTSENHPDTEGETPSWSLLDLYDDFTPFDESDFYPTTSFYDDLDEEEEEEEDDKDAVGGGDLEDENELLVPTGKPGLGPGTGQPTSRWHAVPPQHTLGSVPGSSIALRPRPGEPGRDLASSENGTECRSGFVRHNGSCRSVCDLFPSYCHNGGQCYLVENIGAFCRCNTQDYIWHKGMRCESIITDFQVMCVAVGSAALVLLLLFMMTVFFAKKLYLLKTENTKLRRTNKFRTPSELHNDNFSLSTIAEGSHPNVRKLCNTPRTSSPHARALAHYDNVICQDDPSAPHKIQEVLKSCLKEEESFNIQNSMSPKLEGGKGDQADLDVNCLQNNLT
UniProt Q03060: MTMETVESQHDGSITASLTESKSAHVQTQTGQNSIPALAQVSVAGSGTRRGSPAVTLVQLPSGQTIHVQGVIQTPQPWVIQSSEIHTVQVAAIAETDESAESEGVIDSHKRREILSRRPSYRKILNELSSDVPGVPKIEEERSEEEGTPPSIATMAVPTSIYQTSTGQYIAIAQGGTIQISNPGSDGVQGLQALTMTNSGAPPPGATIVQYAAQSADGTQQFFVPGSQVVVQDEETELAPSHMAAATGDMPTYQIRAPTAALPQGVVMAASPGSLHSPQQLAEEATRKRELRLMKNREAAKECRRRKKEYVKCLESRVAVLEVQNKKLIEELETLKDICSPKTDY
UniProt Q9UKG9: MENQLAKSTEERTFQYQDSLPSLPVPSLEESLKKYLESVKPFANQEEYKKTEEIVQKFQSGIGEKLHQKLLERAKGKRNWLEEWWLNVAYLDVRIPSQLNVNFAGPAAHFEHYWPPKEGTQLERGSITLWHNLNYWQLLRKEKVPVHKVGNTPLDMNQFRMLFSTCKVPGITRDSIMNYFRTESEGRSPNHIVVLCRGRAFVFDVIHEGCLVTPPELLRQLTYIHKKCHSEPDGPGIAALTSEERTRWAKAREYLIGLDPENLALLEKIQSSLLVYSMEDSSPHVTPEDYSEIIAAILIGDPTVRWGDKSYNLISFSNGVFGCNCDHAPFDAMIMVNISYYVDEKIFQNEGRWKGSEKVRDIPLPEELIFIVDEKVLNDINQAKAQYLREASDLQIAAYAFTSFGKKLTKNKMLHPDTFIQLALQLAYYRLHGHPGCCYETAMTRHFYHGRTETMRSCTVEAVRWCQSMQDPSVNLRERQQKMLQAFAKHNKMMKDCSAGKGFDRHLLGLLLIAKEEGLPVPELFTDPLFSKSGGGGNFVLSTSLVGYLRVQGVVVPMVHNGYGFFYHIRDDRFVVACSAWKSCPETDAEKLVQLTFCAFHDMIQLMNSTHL
UniProt Q86T23: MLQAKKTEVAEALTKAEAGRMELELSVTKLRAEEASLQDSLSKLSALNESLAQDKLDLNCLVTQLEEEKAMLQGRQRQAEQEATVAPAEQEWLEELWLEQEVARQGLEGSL
UniProt P08311: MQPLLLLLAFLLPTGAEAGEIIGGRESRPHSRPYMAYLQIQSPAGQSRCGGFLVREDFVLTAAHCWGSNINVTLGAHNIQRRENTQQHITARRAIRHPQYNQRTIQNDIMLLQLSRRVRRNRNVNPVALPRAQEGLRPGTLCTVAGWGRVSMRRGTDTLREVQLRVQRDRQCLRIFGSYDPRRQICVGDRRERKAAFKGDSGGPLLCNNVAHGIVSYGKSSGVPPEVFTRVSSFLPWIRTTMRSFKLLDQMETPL
UniProt Q70SY1: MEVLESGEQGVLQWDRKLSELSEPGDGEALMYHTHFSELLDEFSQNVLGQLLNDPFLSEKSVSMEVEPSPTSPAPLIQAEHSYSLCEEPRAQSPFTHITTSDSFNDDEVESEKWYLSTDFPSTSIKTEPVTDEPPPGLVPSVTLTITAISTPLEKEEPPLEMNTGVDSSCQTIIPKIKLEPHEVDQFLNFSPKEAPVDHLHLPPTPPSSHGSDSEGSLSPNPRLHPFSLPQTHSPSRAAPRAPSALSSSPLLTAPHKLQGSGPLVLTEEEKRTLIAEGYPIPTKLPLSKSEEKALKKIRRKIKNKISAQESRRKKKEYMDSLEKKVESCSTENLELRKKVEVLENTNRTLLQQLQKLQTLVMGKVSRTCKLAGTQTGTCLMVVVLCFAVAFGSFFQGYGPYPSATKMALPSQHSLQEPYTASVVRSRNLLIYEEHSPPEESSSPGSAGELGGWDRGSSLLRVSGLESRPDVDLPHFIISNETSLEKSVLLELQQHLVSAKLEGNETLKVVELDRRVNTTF

Columns and labels:
Assay in all cases: log2 fold change, soluble protein after heating vs DMSO (PISA); higher = thermal stabilisation; K562 lysate, 10 uM; active = over 0.2 and 3.5 SD of the protein, either way, in both replicates (recomputed)
nilotinib = compound: Cc1cn(-c2cc(NC(=O)c3ccc(C)c(Nc4nccc(-c5cccnc5)n4)c3)cc(C(F)(F)F)c2)cn1 [nilotinib]
How it was run: (§1)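 A 30 min treatment with 10 μM compound was applied to crude K562 extract at 1 mg/mL protein in PBS pH 7.4 with 1 mM MgCl2. Heating for 3 min spanned 48°C-58°C, after which aliquots were pooled, adjusted to 0.5% NP-40 at 4°C and spun at 21,000xg for 90 min. TMTpro 16plex LC-MS/MS of the supernatant, with channel sums equalised, gave values recorded as log-two fold change in thermal stability against solvent controls, from duplicates.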

[1] = compound: Cc1nc(Nc2n[nH]c3c2CN(C(=O)N[C@H](CN(C)C)c2ccccc2)C3(C)C)c2sccc2n1
How it was run: as §1

dasatinib = compound: Cc1nc(Nc2ncc(C(=O)Nc3c(C)cccc3Cl)s2)cc(N2CCN(CCO)CC2)n1 [dasatinib]
How it was run: as §1

[2] = compound: Cc1ncc(-c2ccnc(Nc3ccc(S(C)(=O)=O)cc3)n2)n1C(C)C
How it was run: as §1

[3] = compound: Cn1cc(-c2ccc3c(c2)CCN3C(=O)Cc2cccc(C(F)(F)F)c2)c2c(N)ncnc21
How it was run: as §1

quisinostat = compound: Cn1cc(CNCC2CCN(c3ncc(C(=O)NO)cn3)CC2)c2ccccc21 [quisinostat]
How it was run: as §1

tipifarnib = compound: Cn1cncc1[C@@](N)(c1ccc(Cl)cc1)c1ccc2c(c1)c(-c1cccc(Cl)c1)cc(=O)n2C [tipifarnib]
How it was run: as §1

[4] = compound: NC(=O)Nc1cc(-c2cccc(F)c2)sc1C(=O)N[C@H]1CCCNC1
How it was run: as §1

[5] = compound: NC(=O)c1cnc(N[C@@H]2CCCC[C@@H]2N)nc1Nc1cccc(-n2nccn2)c1
How it was run: as §1

[6] = compound: NC1(c2ccc(-c3nc4ccn5c(=O)[nH]nc5c4cc3-c3ccccc3)cc2)CCC1
How it was run: as §1

[7] = compound: NCC(=O)Nc1ccc(-n2nc(C(F)(F)F)cc2-c2ccc3c(ccc4ccccc43)c2)cc1
How it was run: as §1

vorinostat = compound: O=C(CCCCCCC(=O)Nc1ccccc1)NO [vorinostat]
How it was run: as §1

silmitasertib = compound: O=C(O)c1ccc2c(c1)nc(Nc1cccc(Cl)c1)c1ccncc12 [silmitasertib]
How it was run: as §1

[8] = compound: O=C1NC(=O)C(c2cnc3ccccn23)=C1c1cn2c3c(cc(F)cc13)CN(C(=O)N1CCCCC1)CC2
How it was run: as §1

entospletinib = compound: c1cn2cc(-c3ccc4cn[nH]c4c3)nc(Nc3ccc(N4CCOCC4)cc3)c2n1 [entospletinib]
How it was run: as §1

| Target | log2 fold change (nilotinib) | log2 fold change [1] | log2 fold change (dasatinib) | log2 fold change [2] | log2 fold change [3] | log2 fold change (quisinostat) | log2 fold change (tipifarnib) | log2 fold change [4] | log2 fold change [5] | log2 fold change [6] | log2 fold change [7] | log2 fold change (vorinostat) | log2 fold change (silmitasertib) | log2 fold change [8] | log2 fold change (entospletinib) |
| --- | --- | --- | --- | --- | --- | --- | --- | --- | --- | --- | --- | --- | --- | --- | --- |
| CT47B1 (UniProt P0C2W7) | inactive: -0.078 | inactive: 0.141 | inactive: 0.03 | inactive: 0.013 | inactive: 0.044 | inactive: 0 | inactive: 0.048 | inactive: 0.042 | inactive: 0.079 | inactive: -0.111 | inactive: 0.116 | inactive: 0.046 | inactive: 0.026 | inactive: -0.06 | inactive: 0.051 |
| CSDE1 isoform 3 (UniProt O75534) | inactive: 0.064 | inactive: -0.135 |  | inactive: 0.016 |  | inactive: 0.022 | inactive: -0.02 | inactive: -0.085 | inactive: -0.021 |  |  |  |  | inactive: -0.1 |  |
| CRY1 (UniProt Q16526) | inactive: 0.016 | inactive: -0.037 |  | inactive: 0.07 |  |  | inactive: 0.106 |  |  |  |  |  |  |  |  |
| CYFIP1, A0A0G2JRV9 | inactive: -0.105 | inactive: -0.091 |  | inactive: 0.002 |  |  | inactive: 0.106 |  | inactive: -0.141 |  |  |  |  |  |  |
| CYB561A3 isoform 2 (UniProt Q8NBI2) | inactive: -0.001 | inactive: -0.02 | inactive: 0.053 | inactive: 0.049 | inactive: -0.012 | inactive: -0.115 | inactive: -0.013 | inactive: -0.017 | inactive: -0.052 | inactive: -0.016 | inactive: 0.095 | inactive: -0.051 | inactive: 0.006 | inactive: -0.034 | inactive: 0.092 |
| CTC1 (UniProt Q2NKJ3) | inactive: 0.385 | inactive: -0.251 | inactive: 0.006 | inactive: -0.122 | inactive: 0.045 | inactive: -0.085 | inactive: -0.033 | inactive: 0.194 |  | inactive: 0.077 | inactive: 0.05 | inactive: -0.302 | inactive: 0.149 | inactive: 0.084 | inactive: 0.116 |
| CYB5A (UniProt P00167) | inactive: 0.004 | inactive: 0.031 | inactive: -0.066 | inactive: 0.066 | inactive: 0.039 | inactive: 0.041 | inactive: -0.025 | inactive: -0.057 |  | inactive: 0.052 |  | inactive: 0.134 | inactive: -0.07 | inactive: 0.013 | inactive: -0.086 |
| CTCFL isoform 7 (UniProt Q8NI51) | inactive: -0.006 | inactive: 0.006 |  | inactive: -0.126 |  | inactive: 0.044 | inactive: 0.226 | inactive: -0.02 |  |  |  |  |  | inactive: 0.006 | inactive: -0.179 |
| CYBC1 (UniProt Q9BQA9) | inactive: 0.03 | inactive: -0.035 | inactive: -0.03 | inactive: -0.01 | inactive: 0.136 | inactive: -0.159 | inactive: -0.059 | inactive: 0.02 | inactive: -0.026 | inactive: -0.069 |  | inactive: 0 | inactive: 0.024 | inactive: 0.015 | inactive: -0.122 |
| CTBP1 (UniProt E7ESU7) | inactive: -0.314 | inactive: -0.096 |  | inactive: 0.182 |  |  | inactive: 0.545 |  |  |  |  |  |  |  |  |
| CST1 (UniProt P01037) | inactive: -0.146 | inactive: 0.073 |  | inactive: -0.03 |  | inactive: -0.007 | inactive: -0.177 | inactive: -0.046 |  | inactive: 1.03 |  | inactive: 0.059 | inactive: -0.214 | inactive: 0.117 | inactive: -0.157 |
| CRLS1 (UniProt Q9UJA2) | inactive: 0.1 | inactive: -0.096 |  | inactive: -0.143 |  | inactive: -0.122 | inactive: -0.01 | inactive: 0.066 | inactive: -0.018 | inactive: -0.067 |  | active: -0.572 | inactive: 0.172 | inactive: 0.036 |  |
| CSNK2A1 (UniProt P68400) | inactive: -0.022 | inactive: 0.061 | inactive: 0 | inactive: 0.058 | inactive: -0.029 | inactive: 0.049 | inactive: -0.013 | inactive: 0.019 | inactive: 0.003 | inactive: -0.068 | inactive: 0.15 | inactive: 0.057 |  | inactive: -0.046 | inactive: 0.213 |
| CSPG5 isoform 2 (UniProt O95196) | inactive: -0.109 | inactive: 0.173 |  | inactive: -0.208 |  | inactive: -0.012 | inactive: 0.249 | inactive: 0.053 |  | inactive: -0.111 | inactive: -0.022 | inactive: 0.269 | inactive: 0.08 | inactive: -0.01 |  |
| CREM isoform 1 (UniProt Q03060) | inactive: -0.061 | inactive: -0.044 | inactive: -0.125 | inactive: 0.054 | inactive: 0.067 | inactive: -0.024 | inactive: 0.091 | inactive: -0.035 | inactive: -0.034 |  |  |  |  | inactive: -0.04 |  |
| CROT isoform 3 (UniProt Q9UKG9) | inactive: -0.12 | inactive: 0.054 |  | inactive: 0.27 |  | inactive: 0.051 | inactive: 0 | inactive: 0.008 |  | inactive: -0.145 |  | inactive: 0.077 | inactive: 0.018 | inactive: 0.045 | inactive: 0.105 |
| CROCCP2 (UniProt Q86T23) | inactive: 0.146 | inactive: -0.029 |  | inactive: 0.063 |  | inactive: -0.036 | inactive: -0.111 | inactive: 0.033 | inactive: -0.118 | inactive: 0.12 |  | inactive: 0.065 | inactive: 0.086 | inactive: -0.147 | inactive: 0.026 |
| CTSG (UniProt P08311) | inactive: -0.071 | inactive: -0.129 | inactive: -0.031 | inactive: 0 | inactive: 0.181 | inactive: 0.112 | inactive: -0.007 | inactive: 0.009 |  | inactive: -0.13 |  | inactive: 0.002 | inactive: -0.136 | inactive: -0.208 |  |
| CREB3L2 (UniProt Q70SY1) | inactive: 0.192 | inactive: -0.088 | inactive: 0.119 | inactive: 0.056 | inactive: -0.054 |  | inactive: -0.115 |  | inactive: -0.042 | inactive: -0.001 | inactive: -0.089 | inactive: 0.139 | inactive: -0.007 |  | inactive: 0.026 |
| CRYM-AS1 (UniProt A6NIL9) | inactive: 0.168 | inactive: -0.092 |  | inactive: -0.115 |  | inactive: -0.209 | inactive: -0.244 | inactive: 0.069 | inactive: 0.099 | inactive: -0.115 | inactive: 0.235 | inactive: 0.06 | inactive: 0.003 | inactive: 0.157 | inactive: -0.004 |

Rewritten with bars between the fields: part of the list above
Target | log2 fold change (nilotinib) | log2 fold change [1] | log2 fold change (dasatinib) | log2 fold change [2] | log2 fold change [3] | log2 fold change (quisinostat) | log2 fold change (tipifarnib) | log2 fold change [4] | log2 fold change [5] | log2 fold change [6] | log2 fold change [7] | log2 fold change (vorinostat) | log2 fold change (silmitasertib) | log2 fold change [8] | log2 fold change (entospletinib)
CSPG5 isoform 2 (UniProt O95196) | inactive: -0.109 | inactive: 0.173 |  | inactive: -0.208 |  | inactive: -0.012 | inactive: 0.249 | inactive: 0.053 |  | inactive: -0.111 | inactive: -0.022 | inactive: 0.269 | inactive: 0.08 | inactive: -0.01 | 
CREM isoform 1 (UniProt Q03060) | inactive: -0.061 | inactive: -0.044 | inactive: -0.125 | inactive: 0.054 | inactive: 0.067 | inactive: -0.024 | inactive: 0.091 | inactive: -0.035 | inactive: -0.034 |  |  |  |  | inactive: -0.04 | 
